This passage reports binding results from article doi:10.1101/2022.12.25.521893 (bioRxiv, 2022).

To fix the notation:
B1: endogenous E. coli Lpp (the Braun's lipoprotein) (protein, UniProt P69776 21-78)
chain: CSSNAKIDQLSSDVQTLNAKVDQLSNDVNAMRSDVQAAKDDAARANQRLDNMATKYRK
B2: endogenous E. coli lipoprotein Blc (protein, UniProt P0A901 19-177)
chain: CSSPTPPRGVTVVNNFDAKRYLGTWYEIARFDHRFERGLEKVTATYSLRDDGGLNVINKGYNPDRGMWQQSEGKAYFTGAPTRAALKVSFFGPFYGGYNVIALDREYRHALVCGPDRDYLWILSRTPTISDEVKQEMLAVATREGFDVSKFIWVQQPGS
B3: endogenous E. coli lipoprotein YedD (natural protein)
chain: CAEVENYNNVVKTPAPDWLAGYWQTKGPQRALVSPEAIGSLIVTKEGDTLDCRQWQRVIAVPGKLTLMSDDLTNVTVKRELYEVERDGNTIEYDGMTMERVDRPTAECAAALDKAPLPTPLP
B4: endogenous E. coli lipoprotein Slp (protein, UniProt P37194 19-188)
chain: CSSIPQNIKGNNQPDIQKSFVAVHNQPGLYVGQQARFGGKVINVINGKTDTLLEISVLPLDSYAKPDIEANYQGRLLARQSGFLDPVNYRNHFVTILGTIQGEQPGFINKVPYNFLEVNMQGIQVWHLREVVNTTYNLWDYGYGAFWPEPGWGAPYYTNAVSQVTPELVK
B5: endogenous E. coli lipoprotein YbjP (protein, UniProt P75818 19-171)
chain: CTTVTPAYKDNGTRSGPCVEGGPDNVAQQFYDYRILHRSNDITALRPYLSDKLATLLSDASRDNNHRELLTNDPFSSRTTLPDSAHVASASTIPNRDARNIPLRVDLKQGDQGWQDEVLMIQEGQCWVIDDVRYLGGSVHATAGTLRQSIENR

These are yes or no findings as the source states them, for the method shown. In cells and extracts the contact can be indirect. Here binding means that the protein was enriched with, or labelled near, the bait; the list need not be complete.

The target of this test is LptDE complex from Pseudomonas aeruginosa with a hexahistidine tag on LptE (Pseudomonas aeruginosa). The test is described as follows: affinity purification with mass spectrometry.
Take B1: the binding result is “binds”. The same measure for B2: “binds”. The value for B3 was “binds”. The same measure for B4: “binds”; for B5: “binds”.
